Measured values: PubChem BioAssay AID1347076 (National Center for Advancing Translational Sciences (NCATS), 2019)
The campaign covered roughly 400,000 compounds. About 13,000 (3.2%) were called active. This list was built around the results that the source calls inconclusive (neither active nor inactive); the mix of calls is not that of the screen. Calls come from the whole dose curve; as a rule, active = well fitted cell-killing curve with a large enough effect; inconclusive = small, poorly fitted or top-dose-only effect, or effect the other way; inactive = flat fitted curve, though single readings scatter. A potency beside an inconclusive call is a rough fit, not a confirmed value.

assay: qHTS assay for MDR1-selective chemotherapeutics: Primary screen using the drug-selected MDR subline cells KB-V1; conditions: KB-V1 MDR cells viability, CellTiter-Glo, 72 h; activity change, negative = cytotoxicity: at 46.1 µM (top of the series); note: nearly all actives have a fitted effect of over 60% in size
Procedure, shortened: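 qHTS viability screen in drug-selected KB-V1 MDR cells: 72 h compound treatment at 37 degrees C, ATP luminescence end point.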
% is set by controls: 0 for no effect and ±100 for the full control effect; potency is the fitted concentration of half-maximal effect.

**Q.** For `CN(C(=O)c1ccc(NC(=O)Cc2cccc(NC(=O)C3CCCN(C(=O)CCc4ccccc4)C3)c2)cc1)C1CCCC1` (centres undefined), which “activity change, negative = cytotoxicity” value is on record?
**A.** inactive: 2.14%

**Q.** Which Potency does the source give for `COc1cccc(C(=O)COC(=O)CCC(=O)NC2CCCCC2)c1` here?
**A.** inconclusive: 16.4 µM [rising, partial curve, poor fit]

**Q.** For `CC1CCCN(CCCNC(=O)c2cn(C)c3ccc(S(=O)(=O)N(C)C4CCCCC4)cc3c2=O)C1` (centres undefined), which Potency is on record?
**A.** inconclusive: 29.1 µM [rising, single point]

**Q.** For `COc1ccccc1S(=O)(=O)CC(O)COc1ccc(F)cc1Cl` (centres undefined), which Potency is on record?
**A.** inconclusive: 29.1 µM [cytotoxic, single point]

**Q.** Which “activity change, negative = cytotoxicity” value does the source give for `O=C(Nc1c(-c2ccc(Cl)cc2)[nH][nH]c1=O)c1ccccn1` here?
**A.** inactive: 0%

**Q.** With `COc1ccc(OCCNc2cc(N3CCCCC3)ccc2[N+](=O)[O-])cc1` as the compound, how does the “activity change, negative = cytotoxicity” value read?
**A.** inactive: -7.21%

**Q.** Which Potency does the source give for `COc1ccc(C(=O)OCC(=O)c2cc(OC)ccc2OC)c(OC)c1` here?
**A.** inconclusive: 4.11 µM [cytotoxic, full curve, poor fit]

**Q.** Which Potency does the source give for `CCN(c1ccccc1)S(=O)(=O)c1cccc(C(=O)NCCOc2ccccc2OC)c1` here?
**A.** inconclusive: 5.8 µM [cytotoxic, partial curve]

**Q.** Which Potency does the source give for `COc1ccc(-c2nc(-c3ccccc3)c(-c3cc([N+](=O)[O-])ccc3C)[nH]2)cc1O` here?
**A.** inconclusive: 29.1 µM [cytotoxic, single point]

**Q.** Which Potency does the source give for `CCCCCCNC(=O)CCCCCNS(=O)(=O)c1ccc(Br)cc1` here?
**A.** inconclusive: 11.6 µM [cytotoxic, partial curve]

**Q.** Which Potency does the source give for `CCc1ccccc1OC[C@@H](O)CN[C@H]1CCCc2ccccc21` here?
**A.** inconclusive: 14.6 µM [cytotoxic, partial curve]

**Q.** For `COc1ccc(Cn2c(C(=O)O)c(CNCCc3cccs3)c3ccc(C)cc32)cc1`, which “activity change, negative = cytotoxicity” value is on record?
**A.** inactive: 0%

**Q.** For `Oc1[nH]c2ccccc2c1C1=NCCCCC1`, which “activity change, negative = cytotoxicity” value is on record?
**A.** inactive: 10.1%

**Q.** Which Potency does the source give for `NC(CCc1ccccc1)c1csc(NC(=O)NCCc2ccccc2)n1` (centres undefined) here?
**A.** inconclusive: 18.4 µM [cytotoxic, partial curve, poor fit]

**Q.** For `Cc1c(NC(=O)c2ccc(Cl)nc2)cccc1-c1nc2cccnc2s1`, which Potency is on record?
**A.** inconclusive: 23.1 µM [cytotoxic, partial curve, poor fit]

**Q.** With `CC(C)(C)C(=O)NCCc1nc2ccccc2n1CCCCOc1ccc(Cl)cc1` as the compound, how does the “activity change, negative = cytotoxicity” value read?
**A.** inactive: -18.5%

**Q.** Which Potency does the source give for `C[C@@H]1CN([C@@H](C)CO)C(=O)c2cc(N(C)C)ccc2O[C@@H](C)CCCCO[C@@H]1CN(C)Cc1ccc2c(c1)OCO2` here?
**A.** inconclusive: 29.1 µM [cytotoxic, single point]

**Q.** For `CCOC(=O)[C@]12CCCC=C1N(Cc1ccccc1)C(=O)[C@H](CC(=O)NCC1CCCCC1)C2`, which Potency is on record?
**A.** inconclusive: 2.59 µM [cytotoxic, full curve]

**Q.** For `Cc1ccoc1C(=O)N1CCCC(CO)(Cc2ccc(F)cc2)C1` (centres undefined), which Potency is on record?
**A.** inconclusive: 13 µM [cytotoxic, partial curve]

**Q.** Which Potency does the source give for `O=C1C(NS(=O)(=O)c2ccccc2)=C(N2CCN(c3ccc(F)cc3)CC2)C(=O)c2ccccc21` here?
**A.** inconclusive: 9.2 µM [cytotoxic, partial curve, poor fit]

**Q.** Which Potency does the source give for `Cc1cnc(NC(=O)Cc2ccc(S(=O)(=O)N3CCOCC3)s2)s1` here?
**A.** active: 23.1 µM

**Q.** With `CCN1CCN(c2ccc(NC(=O)c3ccc([N+](=O)[O-])o3)cc2Cl)CC1` as the compound, how does the Potency read?
**A.** inconclusive: 20.6 µM [cytotoxic, single point]

**Q.** Which Potency does the source give for `NNc1nc(-c2ccccc2)cc(-c2ccc(Br)cc2)n1` here?
**A.** inconclusive: 1.84 µM [cytotoxic, full curve]

**Q.** For `CCCS(=O)(=O)Nc1ccc(-c2cn3c(n2)SCC3)cc1`, which Potency is on record?
**A.** inconclusive: 0.517 µM [rising, full curve, poor fit]

**Q.** For `COc1ccc(-c2oc3ccccc3c2C(=O)OCc2ccccc2OC)cc1`, which “activity change, negative = cytotoxicity” value is on record?
**A.** inactive: 2.17%

**Q.** With `CC(C)CNC(=O)c1cccc(NC(=O)c2ccco2)c1` as the compound, how does the “activity change, negative = cytotoxicity” value read?
**A.** inactive: -10.4%

**Q.** For `CC(C)OC(=O)c1nnn(-c2nonc2N)c1CN1CCc2ccccc2C1`, which Potency is on record?
**A.** active: 6.51 µM

**Q.** With `Cc1oc(-c2cc(Cl)cc(Cl)c2)cc1C(=O)NCCc1ccccc1` as the compound, how does the Potency read?
**A.** inconclusive: 16.4 µM [cytotoxic, single point]

**Q.** With `CN(Cc1ccccc1)C(=O)C1(C)CCN1C(=O)Cc1ccc(Cl)cc1Cl` (centres undefined) as the compound, how does the Potency read?
**A.** inconclusive: 16.4 µM [cytotoxic, partial curve]

**Q.** For `Cc1c(C#N)c(NC(=O)CCl)n(Cc2ccccc2)c1C`, which Potency is on record?
**A.** inconclusive: 16.4 µM [cytotoxic, partial curve]

**Q.** For `Cc1ccc(Sc2ccc(NC(=O)CCl)cc2)cc1C`, which Potency is on record?
**A.** inconclusive: 29.1 µM [cytotoxic, single point]

**Q.** With `COc1cc2ncc(C(=O)c3ccccc3)c(N3CCN(Cc4ccccc4)CC3)c2cc1OC` as the compound, how does the “activity change, negative = cytotoxicity” value read?
**A.** inactive: -2.89%

**Q.** Which Potency does the source give for `CC(=O)Nc1ccc(/C(C)=N/NS(=O)(=O)c2ccccc2)cc1` here?
**A.** inconclusive: 16.4 µM [rising, partial curve, poor fit]

**Q.** Which Potency does the source give for `c1ccc(-c2csc3ncnc(NCC4COc5ccccc5O4)c23)cc1` (centres undefined) here?
**A.** active: 23.1 µM

**Q.** For `O=C(NCC(=O)N(CC1CCCO1)C(C(=O)NC1CCCCC1)c1ccccc1)c1cccs1` (centres undefined), which Potency is on record?
**A.** inconclusive: 20.6 µM [cytotoxic, single point]

**Q.** Which “activity change, negative = cytotoxicity” value does the source give for `C(=C\c1c[nH]c2ccccc12)/c1nccc2ccccc12` here?
**A.** inactive: -42.4%

**Q.** For `Cn1c(SCC(=O)NC2CCCCC2)nnc1-c1ccccc1F`, which “activity change, negative = cytotoxicity” value is on record?
**A.** inactive: -1.85%

**Q.** With `COc1ccc(N(Cc2ccccc2)S(=O)(=O)c2ccc(C)cc2)cc1` as the compound, how does the Potency read?
**A.** inconclusive: 9.2 µM [cytotoxic, partial curve]

**Q.** Which Potency does the source give for `COc1ccc(C(=O)NCC(=O)N/N=C/c2ccc([N+](=O)[O-])o2)cc1OC` here?
**A.** inconclusive: 1.3 µM [cytotoxic, full curve]

**Q.** With `CC(OC(=O)c1ccccc1NS(=O)(=O)c1cccc(N)c1)C(=O)N(C)Cc1ccccc1` (centres undefined) as the compound, how does the Potency read?
**A.** active: 3.66 µM

**Q.** With `Cn1c(SCC(=O)Nc2cc(Cl)cc(Cl)c2)nnc1-c1ccc2nonc2c1` as the compound, how does the Potency read?
**A.** inconclusive: 14.6 µM [cytotoxic, single point]

**Q.** For `Cc1nc2ccccc2c2c(N)c3ccccc3n12`, which “activity change, negative = cytotoxicity” value is on record?
**A.** inactive: -4.18%

**Q.** For `CN(C)C=Nc1ncc2c([nH]c3ccccc32)c1C#N`, which Potency is on record?
**A.** active: 7.31 µM

**Q.** Which Potency does the source give for `CC1CCCN(S(=O)(=O)c2ccc(NC(=O)C3CC(=O)N(c4ccccc4)C3)cc2)C1` (centres undefined) here?
**A.** inconclusive: 20.6 µM [cytotoxic, single point]
